Measurements: publication PMC4106906
No constants are given. Whether binding was seen depends on the method and setting. Binding seen in cells or lysates may run through a third protein. Some binding calls cover weakened binding; strength is not graded here. For some assays here: Tags and fused reporters may be left off the sequences shown.

By UniProt entry, the sequences of proteins in these tests, tags left out. Where a name states a change or a piece, a line headed by the entry shows the natural chain unless it says otherwise. Chains listed by the source or under a name are the forms on record and can include a tag or linker. Residues count along the entry.
UniProt P10909: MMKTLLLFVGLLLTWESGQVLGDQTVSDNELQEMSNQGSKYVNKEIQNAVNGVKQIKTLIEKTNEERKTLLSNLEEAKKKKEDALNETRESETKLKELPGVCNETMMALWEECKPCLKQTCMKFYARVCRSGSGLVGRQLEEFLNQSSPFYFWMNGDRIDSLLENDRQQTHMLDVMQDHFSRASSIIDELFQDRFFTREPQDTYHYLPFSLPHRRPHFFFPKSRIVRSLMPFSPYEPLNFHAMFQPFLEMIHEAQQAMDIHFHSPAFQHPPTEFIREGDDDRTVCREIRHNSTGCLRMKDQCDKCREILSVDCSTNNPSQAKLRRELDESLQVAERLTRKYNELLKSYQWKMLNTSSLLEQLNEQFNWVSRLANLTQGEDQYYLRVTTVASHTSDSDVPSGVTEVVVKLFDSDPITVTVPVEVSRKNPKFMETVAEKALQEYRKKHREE
clusterin, endogenous in human brain (human (endogenous in brain tissue)): residues 23-449 of P10909
intracellular human clusterin, Flag-tagged (iCLU): residues 34-449 of P10909

How the values were obtained:
[1] = target: T1, BIN1 isoform 1, endogenous in human brain (human (endogenous in brain tissue)) (UniProt O00499); experiment: co-IP; human brain lysates from AD (n = 3) and control (n = 3) subjects; immunoprecipitated with anti-CLU, anti-BIN1 or anti-Tau antibody on protein G dynabeads; Western blot
T1 sequence: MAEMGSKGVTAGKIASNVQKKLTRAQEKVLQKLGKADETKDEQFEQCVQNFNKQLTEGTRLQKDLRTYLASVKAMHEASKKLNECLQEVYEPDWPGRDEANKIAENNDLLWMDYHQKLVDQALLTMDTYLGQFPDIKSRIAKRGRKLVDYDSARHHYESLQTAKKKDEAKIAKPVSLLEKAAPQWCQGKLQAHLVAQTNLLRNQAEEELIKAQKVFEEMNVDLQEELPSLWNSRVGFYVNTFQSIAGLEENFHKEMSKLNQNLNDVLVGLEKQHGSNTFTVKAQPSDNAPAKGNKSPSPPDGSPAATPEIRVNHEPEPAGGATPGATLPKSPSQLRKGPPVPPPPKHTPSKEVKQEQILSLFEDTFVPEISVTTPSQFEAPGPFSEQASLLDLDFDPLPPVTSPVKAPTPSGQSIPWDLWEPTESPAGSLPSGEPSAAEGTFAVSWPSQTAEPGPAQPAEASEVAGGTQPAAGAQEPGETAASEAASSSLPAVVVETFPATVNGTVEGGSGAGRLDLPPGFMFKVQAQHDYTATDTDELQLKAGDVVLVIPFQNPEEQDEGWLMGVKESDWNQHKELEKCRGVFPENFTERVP

[2] = target: T2, human BIN1 isoform 1, myc-tagged (human) (UniProt O00499); experiment: co-IP; iTau-HEK cells co-transfected with iCLU and BIN1.1, PBS- or doxycycline-treated; lysates immunoprecipitated with anti-Tau HT7, anti-BIN1 99D or anti-CLU C18 antibody; Western blot
T2 sequence: T1 sequence

[3] = target: T2, human BIN1 isoform 1, myc-tagged (human); experiment: co-IP; iTau-HEK cells co-transfected with iCLU and each of the ten myc-tagged BIN1 isoforms; immunoprecipitating antibodies not given
[4] = target: intracellular human clusterin, Flag-tagged (iCLU) (human) (UniProt P10909); experiment: co-IP; iTau-HEK cells co-transfected with iCLU and BIN1.1, PBS- or doxycycline-treated; lysates immunoprecipitated with anti-Tau HT7, anti-BIN1 99D or anti-CLU C18 antibody; Western blot
[5] = target: clusterin, endogenous in human brain (human (endogenous in brain tissue)) (UniProt P10909); experiment: co-IP; human brain lysates from AD (n = 3) and control (n = 3) subjects; immunoprecipitated with anti-CLU, anti-BIN1 or anti-Tau antibody on protein G dynabeads; Western blot

Molecule: clusterin, endogenous in human brain (from UniProt P10909-1 23-449)
- binding [1]: binds

Molecule: intracellular human clusterin, Flag-tagged (iCLU) (from UniProt P10909-2 86-501) (domain or fragment)
- binding [2]: binds
- binding [3]: binds

B1: human BIN1 isoform 1, myc-tagged (protein, UniProt O00499 1-593)
chain: T1 sequence
- binding [4]: binds

B2: BIN1 isoform 1, endogenous in human brain (protein, UniProt O00499 1-593)
chain: T1 sequence
- binding [5]: binds
